This is an account of results in PubChem BioAssay AID1487 (National Center for Advancing Translational Sciences (NCATS), 2009).

Values joined by “and” are separate entries in the source; they are usually repeats but may differ in a detail not shown here. Equal entries are not always repeated. Some of the results follow. Further columns of the screen follow, without active or inactive calls. The list favours compounds with an active or inconclusive main result. The note in brackets gives the kind of curve behind each potency; many fits are weak.

A short description of the experiment: qHTS Assay for Modulators of Lamin A Splicing. As to conditions: HeLa LMNA splicing GFP/RFP minigene ratio, 48 h. A digest of the protocol:
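S3 HeLa cells stably expressing lamin A-EGFP splicing minigene plus DsRed2, 600 cells/well, 48 h compound exposure at 37C. Laser-scanning cytometry; analysed as GFP (500-530 nm)/RFP (575-640 nm) total intensity ratio; 0.5% DMSO vehicle.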
In general terms: Quantitative high-throughput screening tests each substance at several concentrations.

The mark [1] stands for this setting: measured here: RFP viability control channel.
[2] abbreviates: measured here: GFP splicing reporter channel.

Take `CCOC(=O)c1nsnc1NCCCl`: under setting [1], the AC50 (usually the concentration at which the activity in the assay is half-maximal) is 0.0631 µM [rising, full curve, poor fit]. For the compound `Cc1ccccc1N1C(=O)NC(=O)/C(=C\c2cnn(-c3ccccc3)c2)C1=O`, the AC50 under setting [1] is 17.8 µM [rising, single point]. For the compound `C[C@@H]1O[C@H](O[C@@H]2C=C3CC[C@H]4[C@@H](CC[C@]5(C)[C@@H](c6ccc(=O)oc6)CC[C@]45O)[C@@]3(C)CC2)[C@@H](O)[C@H](O)[C@@H]1O`, the AC50 reads like this: under setting [2], 0.0631 µM [falling, full curve]; under setting [1], 0.0355 µM [falling, full curve]. For the compound `Cc1ccc(S(=O)(=O)N2CCCCC2)cc1NC(=O)CN1CC=C(c2ccccc2)CC1`, the AC50 under setting [2] was 3.55 µM [rising, partial curve] and the AC50 under setting [1] is 15.8 µM [rising, partial curve].

With `CC(=O)c1c(C)n(CCCOC(C)C)c2ccc(O)cc12`, the AC50 reads like this: under setting [2], 17.8 µM [rising, single point]; under setting [1], 35.5 µM [rising, single point]. `Nc1ccncc1`: the AC50 under setting [1] was 0.891 µM [rising, full curve]. For the compound `CC/C(=N\Nc1ccccc1)c1c(O)n(C)c(=O)n(C)c1=O`, the concentration at half-maximal activity (AC50) was 14.1 µM [rising, single point] under setting [2] and 25.1 µM [rising, single point] under setting [1]. In the case of `Cc1ccc(N2C(=O)NC(=O)/C(=C\C=C\c3ccco3)C2=O)cc1C`, the AC50 is 35.5 µM [falling, single point] under setting [2] and 25.1 µM [falling, single point] under setting [1]. Regarding `Cc1ccc(OP(=O)(NCc2ccccc2)Oc2ccc(C)cc2)cc1`, the half-maximal activity concentration (AC50) was 35.5 µM [rising, single point] under setting [2] and 31.6 µM [rising, single point] under setting [1]. For `O=Cc1cn(Cc2ccc(F)cc2Cl)c2ccccc12`, the AC50 under setting [1] was 2.82 µM [rising, full curve]. With `CC(=O)O[C@H]1C[C@@H]2CCC3C(CC[C@@]4(C)[C@H]3C[C@H]([N+]3(C)CCCCC3)[C@@H]4OC(C)=O)[C@@]2(C)C[C@@H]1[N+]1(C)CCCCC1` (some centres not stated), under setting [1], the AC50 was 0.141 µM [rising, full curve, poor fit]. Turning to `CCC(=NCCOc1ccc(Cl)cc1)c1c(O)n(C)c(=O)n(C)c1=O`, the AC50 reads like this: under setting [2], 5.62 µM [rising, full curve]; under setting [1], 4.47 µM [rising, full curve]. On to `COc1cc(C2c3cc4c(cc3C(O)[C@H]3COC(=O)C23)OCO4)cc(OC)c1OC` (some centres not stated), for which the AC50 was 0.0708 µM [falling, full curve] under setting [2] and 0.0891 µM [falling, full curve] under setting [1].

For `Cc1cc(C)cc(N2C(=O)NC(=O)/C(=C\c3cccn3-c3ccccc3)C2=O)c1`, the AC50 was 20 µM [falling, partial curve] under setting [2] and 35.5 µM [falling, single point] under setting [1]. In the case of `C=CCn1c(O)c(C(CC)=NCCc2ccccc2)c(=O)[nH]c1=O`, the AC50 under setting [1] is 8.91 µM [rising, partial curve, poor fit].

Regarding `CC(=O)c1ccc2c(c1)N(CCCN(C)C)c1ccccc1S2`, the AC50 by setting is: under setting [2], 5.62 µM [falling, partial curve, poor fit]; under setting [1], 5.62 µM [falling, single point]. For the compound `O=C(O)CCCc1ccc(N(CCCl)CCCl)cc1`, the AC50 by setting is: under setting [2], 10 µM [falling, partial curve] and 15.8 µM [falling, partial curve]; under setting [1], 14.1 µM [falling, single point] and 7.08 µM [rising, partial curve, poor fit] and 25.1 µM [rising, partial curve]. As to `COc1ccc(Cn2c(N)c(C(=O)NCc3ccco3)c3nc4ccccc4nc32)cc1`, the AC50 under setting [2] is 15.8 µM [falling, partial curve].

Turning to `Cc1nn(Cc2ccc(Cl)cc2Cl)c(Cl)c1C(=O)NC1CCCc2ccccc21` (configuration not stated), the concentration at half-maximal activity (AC50) under setting [1] was 0.0794 µM [falling, full curve, poor fit]. `c1ccc2c(c1)OC[C@@H](C1=NCCN1)O2`: the half-maximal activity concentration (AC50) reads like this: under setting [2], 6.31 µM [falling, partial curve]; under setting [1], 7.94 µM [falling, single point]. Consider `O=c1[nH]c(=S)n(C2CC2)c(O)c1/C=N/N1CCOCC1`, for which the AC50 under setting [2] is 0.158 µM [rising, full curve, poor fit]. The same measure, in the same setting: as for `NCC(O)c1cc(O)c(O)cc1F` (configuration not stated), the figure is 15.8 µM [rising, partial curve]. Regarding `CCN(CC)c1ccc(NC(=O)c2cccc(C)c2)cc1S(=O)(=O)Nc1ccccc1OC`, the AC50 under setting [1] was 8.91 µM [rising, partial curve]. On the same count and under the same terms, for `Cc1ccc2c(c1)C1CN(C)CCC1N2C(=O)COc1ccc(N(C)C(=O)C(C)(C)C)cc1` (configuration not stated) the value was 0.0112 µM [falling, full curve, poor fit]. For `COC(=O)[C@]1(C)CC[C@@]2(C)CC[C@@]3(C)C4=CCc5c(cc(O)c(O)c5C)[C@]4(C)CC[C@@]3(C)C2C1` (some centres not stated), the concentration at half-maximal activity (AC50) was 6.31 µM [falling, full curve] under setting [2] and 5.62 µM [falling, full curve] under setting [1]. For the compound `O=C(CCNS(=O)(=O)c1ccccc1)Nc1ccc(Cl)cc1C(=O)c1ccccc1`, the AC50 under setting [1] is 20 µM [rising, partial curve, poor fit].

Turning to `C[C@H](CCC(=O)O)[C@H]1CC[C@@H]2[C@H]3[C@@H](CC[C@@]21C)[C@]1(C)CC[C@H](O)C[C@@H]1C[C@@H]3O`, under setting [1], the AC50 is 11.2 µM [rising, single point]. As to `C=CCN1CCc2cccc3c2C1Cc1ccc(O)c(O)c1-3` (configuration not stated), the concentration at half-maximal activity (AC50) reads like this: under setting [2], 5.62 µM [falling, full curve, poor fit]; under setting [1], 15.8 µM [falling, partial curve].

With `O=[As]O[As]=O` (configuration not stated), the AC50 under setting [2] was 7.94 µM [rising, partial curve, poor fit] and the AC50 under setting [1] was 7.08 µM [rising, full curve, poor fit]. As for `Cn1c(O)c(C(=NCCN2CCCCC2)c2ccccc2Cl)c(=O)n(C)c1=O`, the AC50 reads like this: under setting [2], 14.1 µM [rising, single point]; under setting [1], 35.5 µM [rising, single point]. On to `CC(C)CCNC(=O)Cn1c(=O)oc2cc(S(=O)(=O)N3CCc4ccccc43)ccc21`, for which, under setting [1], the AC50 is 5.01 µM [rising, partial curve, poor fit].
